The record followed here is the supplement of paper PMC7666118.

By UniProt entry, the sequences of proteins in these tests, tags left out. Where a name states a change or a piece, a line headed by the entry shows the natural chain unless it says otherwise.
UniProt Q9BRX5: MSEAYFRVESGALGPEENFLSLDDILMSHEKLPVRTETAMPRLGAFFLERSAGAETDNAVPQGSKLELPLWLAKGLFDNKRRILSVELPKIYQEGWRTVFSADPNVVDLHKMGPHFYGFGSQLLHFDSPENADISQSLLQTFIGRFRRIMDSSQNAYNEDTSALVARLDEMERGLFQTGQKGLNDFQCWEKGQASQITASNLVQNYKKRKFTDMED
UniProt Q9UK97: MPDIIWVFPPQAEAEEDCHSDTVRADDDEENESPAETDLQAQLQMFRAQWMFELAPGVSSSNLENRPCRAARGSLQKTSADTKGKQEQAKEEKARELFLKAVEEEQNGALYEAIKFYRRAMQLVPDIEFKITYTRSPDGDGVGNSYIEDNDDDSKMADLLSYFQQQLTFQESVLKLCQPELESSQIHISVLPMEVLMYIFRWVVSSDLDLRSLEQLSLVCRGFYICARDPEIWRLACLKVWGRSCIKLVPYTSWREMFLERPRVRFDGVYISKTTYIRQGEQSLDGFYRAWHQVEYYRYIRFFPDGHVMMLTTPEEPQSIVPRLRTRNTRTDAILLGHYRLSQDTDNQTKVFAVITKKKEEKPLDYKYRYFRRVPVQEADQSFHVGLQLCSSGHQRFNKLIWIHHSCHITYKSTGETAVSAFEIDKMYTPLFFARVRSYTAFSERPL
UniProt Q6GYQ0: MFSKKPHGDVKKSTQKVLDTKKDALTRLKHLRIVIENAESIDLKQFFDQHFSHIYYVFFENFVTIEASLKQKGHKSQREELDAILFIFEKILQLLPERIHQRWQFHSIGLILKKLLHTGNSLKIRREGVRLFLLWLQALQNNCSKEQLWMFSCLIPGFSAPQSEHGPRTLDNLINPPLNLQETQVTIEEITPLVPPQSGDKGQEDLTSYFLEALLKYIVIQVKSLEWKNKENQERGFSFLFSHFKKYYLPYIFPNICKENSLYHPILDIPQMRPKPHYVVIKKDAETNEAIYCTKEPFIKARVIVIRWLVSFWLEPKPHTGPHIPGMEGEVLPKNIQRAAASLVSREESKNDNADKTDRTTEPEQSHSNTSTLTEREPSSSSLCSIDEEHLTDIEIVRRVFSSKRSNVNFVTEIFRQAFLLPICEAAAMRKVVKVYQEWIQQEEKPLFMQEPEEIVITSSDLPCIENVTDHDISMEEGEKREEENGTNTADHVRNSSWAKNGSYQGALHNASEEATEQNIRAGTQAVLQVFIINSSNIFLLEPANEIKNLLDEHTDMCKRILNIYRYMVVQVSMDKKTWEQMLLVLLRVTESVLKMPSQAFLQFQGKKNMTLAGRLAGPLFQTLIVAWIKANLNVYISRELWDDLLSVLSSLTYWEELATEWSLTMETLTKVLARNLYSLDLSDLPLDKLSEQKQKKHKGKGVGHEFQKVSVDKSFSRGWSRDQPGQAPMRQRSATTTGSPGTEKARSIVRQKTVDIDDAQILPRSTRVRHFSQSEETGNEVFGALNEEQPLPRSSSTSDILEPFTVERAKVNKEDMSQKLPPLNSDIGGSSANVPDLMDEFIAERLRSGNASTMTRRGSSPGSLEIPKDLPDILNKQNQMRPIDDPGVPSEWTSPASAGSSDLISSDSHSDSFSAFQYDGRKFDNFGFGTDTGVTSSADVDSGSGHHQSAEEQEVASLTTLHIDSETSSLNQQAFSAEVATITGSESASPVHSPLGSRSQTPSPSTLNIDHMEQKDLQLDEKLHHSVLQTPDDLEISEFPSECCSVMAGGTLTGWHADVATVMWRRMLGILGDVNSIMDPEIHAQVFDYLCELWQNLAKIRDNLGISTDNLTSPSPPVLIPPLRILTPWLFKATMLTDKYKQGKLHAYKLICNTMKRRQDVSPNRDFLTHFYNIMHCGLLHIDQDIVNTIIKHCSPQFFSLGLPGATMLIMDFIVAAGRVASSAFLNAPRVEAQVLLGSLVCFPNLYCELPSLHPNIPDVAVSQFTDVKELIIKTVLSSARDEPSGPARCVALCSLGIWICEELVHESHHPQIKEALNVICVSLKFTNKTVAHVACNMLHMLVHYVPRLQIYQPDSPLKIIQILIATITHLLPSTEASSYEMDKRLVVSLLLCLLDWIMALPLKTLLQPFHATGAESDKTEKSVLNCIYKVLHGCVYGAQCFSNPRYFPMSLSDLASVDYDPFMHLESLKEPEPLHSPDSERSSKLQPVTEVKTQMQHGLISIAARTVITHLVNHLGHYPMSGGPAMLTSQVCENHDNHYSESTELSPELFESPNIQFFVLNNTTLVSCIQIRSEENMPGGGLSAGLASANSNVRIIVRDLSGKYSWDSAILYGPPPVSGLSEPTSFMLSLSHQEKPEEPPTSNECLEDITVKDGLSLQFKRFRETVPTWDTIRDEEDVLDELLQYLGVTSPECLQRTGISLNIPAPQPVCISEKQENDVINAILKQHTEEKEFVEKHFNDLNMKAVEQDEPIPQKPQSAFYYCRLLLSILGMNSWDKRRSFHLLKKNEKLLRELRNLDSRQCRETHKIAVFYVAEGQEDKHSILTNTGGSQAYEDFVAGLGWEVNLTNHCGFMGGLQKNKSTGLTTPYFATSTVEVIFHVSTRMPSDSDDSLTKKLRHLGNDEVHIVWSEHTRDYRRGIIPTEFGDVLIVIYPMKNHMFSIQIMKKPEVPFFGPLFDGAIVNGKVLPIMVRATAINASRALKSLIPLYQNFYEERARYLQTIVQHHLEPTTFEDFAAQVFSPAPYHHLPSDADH
UniProt Q9NXN4: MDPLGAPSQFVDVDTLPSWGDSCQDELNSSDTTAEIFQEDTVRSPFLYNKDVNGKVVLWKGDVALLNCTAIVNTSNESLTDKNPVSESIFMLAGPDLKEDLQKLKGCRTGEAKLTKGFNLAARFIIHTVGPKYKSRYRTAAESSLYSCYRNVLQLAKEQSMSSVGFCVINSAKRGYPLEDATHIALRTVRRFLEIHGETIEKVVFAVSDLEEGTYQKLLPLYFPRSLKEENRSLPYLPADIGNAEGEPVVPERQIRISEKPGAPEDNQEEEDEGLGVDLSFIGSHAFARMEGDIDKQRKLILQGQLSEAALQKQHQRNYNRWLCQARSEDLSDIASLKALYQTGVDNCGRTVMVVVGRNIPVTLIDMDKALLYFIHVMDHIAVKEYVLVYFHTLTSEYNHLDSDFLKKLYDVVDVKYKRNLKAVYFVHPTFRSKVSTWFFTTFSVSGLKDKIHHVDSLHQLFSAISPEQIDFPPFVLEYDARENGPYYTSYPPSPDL
UniProt P31995: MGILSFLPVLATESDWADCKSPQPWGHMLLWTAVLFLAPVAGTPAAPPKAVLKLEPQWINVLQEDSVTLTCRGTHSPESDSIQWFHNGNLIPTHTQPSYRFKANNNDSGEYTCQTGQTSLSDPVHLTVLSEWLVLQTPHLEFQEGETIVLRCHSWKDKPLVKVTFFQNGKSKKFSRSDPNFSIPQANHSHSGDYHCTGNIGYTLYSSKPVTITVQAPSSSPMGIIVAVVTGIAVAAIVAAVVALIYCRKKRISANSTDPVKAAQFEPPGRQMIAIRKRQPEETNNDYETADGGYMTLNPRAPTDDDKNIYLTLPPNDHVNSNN
UniProt Q14435: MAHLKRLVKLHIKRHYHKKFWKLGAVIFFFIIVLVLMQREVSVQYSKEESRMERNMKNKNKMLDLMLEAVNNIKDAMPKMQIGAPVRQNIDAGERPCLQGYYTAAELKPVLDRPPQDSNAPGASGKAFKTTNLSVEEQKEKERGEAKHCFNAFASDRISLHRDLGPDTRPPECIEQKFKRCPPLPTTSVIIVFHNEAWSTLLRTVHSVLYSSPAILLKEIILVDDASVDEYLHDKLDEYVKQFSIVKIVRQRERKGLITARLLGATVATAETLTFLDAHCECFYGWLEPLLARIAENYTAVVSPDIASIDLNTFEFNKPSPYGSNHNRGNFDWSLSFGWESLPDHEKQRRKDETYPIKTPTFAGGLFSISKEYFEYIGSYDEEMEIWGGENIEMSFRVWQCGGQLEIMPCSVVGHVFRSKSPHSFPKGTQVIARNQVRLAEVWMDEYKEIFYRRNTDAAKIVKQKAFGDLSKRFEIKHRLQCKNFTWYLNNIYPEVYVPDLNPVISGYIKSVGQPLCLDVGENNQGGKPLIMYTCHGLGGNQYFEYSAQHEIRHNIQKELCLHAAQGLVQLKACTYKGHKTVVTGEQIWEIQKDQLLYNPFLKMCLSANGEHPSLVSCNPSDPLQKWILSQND
UniProt Q52LJ0: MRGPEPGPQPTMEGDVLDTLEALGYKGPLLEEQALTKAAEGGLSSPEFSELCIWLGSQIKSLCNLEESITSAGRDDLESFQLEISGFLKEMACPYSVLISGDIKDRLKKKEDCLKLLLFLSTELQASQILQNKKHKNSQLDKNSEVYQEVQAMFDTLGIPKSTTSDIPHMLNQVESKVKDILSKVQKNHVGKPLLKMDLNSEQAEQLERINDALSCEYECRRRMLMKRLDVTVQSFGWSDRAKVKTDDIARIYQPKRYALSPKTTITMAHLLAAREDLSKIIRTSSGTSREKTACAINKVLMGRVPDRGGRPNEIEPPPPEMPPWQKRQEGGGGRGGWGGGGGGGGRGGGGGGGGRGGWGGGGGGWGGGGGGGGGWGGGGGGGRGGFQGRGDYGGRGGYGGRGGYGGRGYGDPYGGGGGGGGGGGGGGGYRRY
UniProt O15287: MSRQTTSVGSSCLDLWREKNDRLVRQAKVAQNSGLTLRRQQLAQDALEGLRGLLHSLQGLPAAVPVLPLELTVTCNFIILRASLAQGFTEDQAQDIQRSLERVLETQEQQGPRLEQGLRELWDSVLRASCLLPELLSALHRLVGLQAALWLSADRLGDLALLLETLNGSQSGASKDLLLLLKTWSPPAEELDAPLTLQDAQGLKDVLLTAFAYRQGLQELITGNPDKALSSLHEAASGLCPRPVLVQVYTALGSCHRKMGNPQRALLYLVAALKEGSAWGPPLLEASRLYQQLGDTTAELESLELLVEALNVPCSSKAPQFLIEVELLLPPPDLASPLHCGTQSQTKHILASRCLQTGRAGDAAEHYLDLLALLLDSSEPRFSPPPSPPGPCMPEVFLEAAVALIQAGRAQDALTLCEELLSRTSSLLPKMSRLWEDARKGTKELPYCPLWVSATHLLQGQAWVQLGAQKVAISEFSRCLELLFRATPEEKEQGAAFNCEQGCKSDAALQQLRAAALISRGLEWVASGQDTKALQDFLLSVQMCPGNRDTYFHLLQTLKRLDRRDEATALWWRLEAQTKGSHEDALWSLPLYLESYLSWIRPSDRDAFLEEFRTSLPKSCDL
UniProt Q9NXK8: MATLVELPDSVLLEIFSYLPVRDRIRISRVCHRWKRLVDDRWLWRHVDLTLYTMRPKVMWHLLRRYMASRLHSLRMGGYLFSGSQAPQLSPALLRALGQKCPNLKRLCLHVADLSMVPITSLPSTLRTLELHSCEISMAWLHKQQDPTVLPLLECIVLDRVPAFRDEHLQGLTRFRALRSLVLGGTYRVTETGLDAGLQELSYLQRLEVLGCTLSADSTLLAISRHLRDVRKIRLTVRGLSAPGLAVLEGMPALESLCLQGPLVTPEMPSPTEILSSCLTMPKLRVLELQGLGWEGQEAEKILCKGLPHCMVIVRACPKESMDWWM
UniProt P11413, whole entry: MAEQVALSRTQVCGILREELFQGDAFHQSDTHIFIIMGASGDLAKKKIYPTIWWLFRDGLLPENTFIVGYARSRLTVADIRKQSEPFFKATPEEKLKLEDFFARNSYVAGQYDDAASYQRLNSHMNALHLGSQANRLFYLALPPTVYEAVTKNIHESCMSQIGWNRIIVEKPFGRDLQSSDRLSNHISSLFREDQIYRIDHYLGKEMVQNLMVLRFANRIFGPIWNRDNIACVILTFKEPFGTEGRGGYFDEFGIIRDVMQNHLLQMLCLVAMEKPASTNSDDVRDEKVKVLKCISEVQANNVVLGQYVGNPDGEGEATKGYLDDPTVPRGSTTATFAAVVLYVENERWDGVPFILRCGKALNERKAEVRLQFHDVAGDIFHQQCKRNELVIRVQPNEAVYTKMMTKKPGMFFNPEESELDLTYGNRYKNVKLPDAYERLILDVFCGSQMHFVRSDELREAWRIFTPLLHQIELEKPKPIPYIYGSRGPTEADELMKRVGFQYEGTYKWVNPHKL
UniProt P22083, whole entry: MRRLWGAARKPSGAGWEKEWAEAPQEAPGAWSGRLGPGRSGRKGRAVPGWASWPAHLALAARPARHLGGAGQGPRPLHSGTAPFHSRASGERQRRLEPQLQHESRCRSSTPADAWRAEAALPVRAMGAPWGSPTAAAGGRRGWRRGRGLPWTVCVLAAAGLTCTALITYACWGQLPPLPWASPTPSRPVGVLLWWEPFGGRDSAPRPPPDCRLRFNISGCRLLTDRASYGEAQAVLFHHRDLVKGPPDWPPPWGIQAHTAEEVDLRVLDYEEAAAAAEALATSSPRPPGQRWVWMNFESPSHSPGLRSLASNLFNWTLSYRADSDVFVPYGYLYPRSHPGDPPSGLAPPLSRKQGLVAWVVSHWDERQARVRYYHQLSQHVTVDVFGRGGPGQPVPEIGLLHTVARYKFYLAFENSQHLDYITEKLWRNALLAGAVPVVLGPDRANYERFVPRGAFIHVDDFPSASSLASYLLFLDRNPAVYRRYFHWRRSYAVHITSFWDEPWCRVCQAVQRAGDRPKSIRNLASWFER

This is one part of the list.

Compound in this assay: COc1ccc(Cn2ccc3cc(C)c(C(=O)NO)cc32)cc1
Nature of the assay: dose-dependent thermal stabilisation call (2D-TPP, DLPTP, 10% FDR) (binary (1 = stabilised)); higher = stabilised by the compound. The conditions noted are these: system: HL-60 intact cells; concentration range 0.04-10 µM. As to the method: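 2D thermal proteome profiling in intact HL-60 cells treated with BRD-3811 (0, 0.04, 0.29, 2, 10 uM) for 90 min at 37 C, then heated 3 min at one of 12 temperatures (42-63.9 C). Soluble protein was quantified by TMT10 MS. The value is the DLPTP call of the paper: dose-dependent thermal stabilisation over all temperatures at 10% FDR (F-test of a dose-response against a flat model); one experiment, one call per tested protein.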
Consider FKBP5 (UniProt Q13451), for which the “dose-dependent thermal stabilisation call” value is inactive: 0.
Then GATAD2A (UniProt Q86YP4), with inactive: 0; and GIGYF1 (UniProt O75420), with inactive: 0; and GEMIN4 (UniProt P57678), with inactive: 0.
Then GEMIN6 (UniProt Q8WXD5), with inactive: 0; and GINS3 (UniProt Q9BRX5), with inactive: 0.
Turning to GLT25D1 (UniProt Q8NBJ5), the “dose-dependent thermal stabilisation call” value is inactive: 0.
On to FNDC3A (UniProt Q9Y2H6), for which the “dose-dependent thermal stabilisation call” value is inactive: 0.
As to FAM78A (UniProt Q5JUQ0), the “dose-dependent thermal stabilisation call” value was inactive: 0.
Consider FBXO9 (UniProt Q9UK97), for which the “dose-dependent thermal stabilisation call” value is inactive: 0.
Consider GLMN (UniProt Q92990), for which the “dose-dependent thermal stabilisation call” value was inactive: 0.
Then GARNL1 (UniProt Q6GYQ0), with inactive: 0; and GDAP2 (UniProt Q9NXN4), with inactive: 0; and FKRP (UniProt Q9H9S5), with inactive: 0.
Turning to FCGR2C (UniProt P31995), the “dose-dependent thermal stabilisation call” value was inactive: 0.
In the case of GALNT3 (UniProt Q14435), the “dose-dependent thermal stabilisation call” value is inactive: 0.
On to FAM98B (UniProt Q52LJ0), for which the “dose-dependent thermal stabilisation call” value was inactive: 0.
For the target FMNL1 (UniProt O95466), the “dose-dependent thermal stabilisation call” value was inactive: 0.
Consider FANCG (UniProt O15287), for which the “dose-dependent thermal stabilisation call” value is inactive: 0.
Take FYN (UniProt P06241): the “dose-dependent thermal stabilisation call” value was inactive: 0.
For GFOD1 (UniProt Q9NXC2), the “dose-dependent thermal stabilisation call” value was inactive: 0.
Under FUS (UniProt P35637) stands inactive: 0; under FLJ22167, inactive: 0; under FBXL12 (UniProt Q9NXK8), inactive: 0.
Regarding GGT1 (UniProt P19440), the “dose-dependent thermal stabilisation call” value is inactive: 0.
Under GIGYF2 (UniProt Q6Y7W6) stands inactive: 0; under G6PD (UniProt P11413), inactive: 0.
Turning to FYB (UniProt O15117), the “dose-dependent thermal stabilisation call” value was inactive: 0.
On to GATSL2 (UniProt A6NHX0), for which the “dose-dependent thermal stabilisation call” value was inactive: 0.
For FLJ12529, the “dose-dependent thermal stabilisation call” value was inactive: 0.
Turning to FAM50A (UniProt Q14320), the “dose-dependent thermal stabilisation call” value is inactive: 0.
On to GDPD1 (UniProt Q8N9F7), for which the “dose-dependent thermal stabilisation call” value was inactive: 0.
Then GNAS, with inactive: 0; and FAM82B (UniProt Q96DB5), with inactive: 0; and FUT4 (UniProt P22083), with inactive: 0.
Then GNB1L (UniProt Q9BYB4), with inactive: 0.
